Experimental data taken from patent publication US6855815 (Amgen, dated 2005).
No constants are given. Whether binding was seen depends on the method and setting. Some results given as binding are weak or reduced against the parent protein; the word gives no strength.

Amino acid sequences for entries named in this document (tags omitted). A change or cut given only in a name is not applied to a line headed by its entry.
UniProt Q13490: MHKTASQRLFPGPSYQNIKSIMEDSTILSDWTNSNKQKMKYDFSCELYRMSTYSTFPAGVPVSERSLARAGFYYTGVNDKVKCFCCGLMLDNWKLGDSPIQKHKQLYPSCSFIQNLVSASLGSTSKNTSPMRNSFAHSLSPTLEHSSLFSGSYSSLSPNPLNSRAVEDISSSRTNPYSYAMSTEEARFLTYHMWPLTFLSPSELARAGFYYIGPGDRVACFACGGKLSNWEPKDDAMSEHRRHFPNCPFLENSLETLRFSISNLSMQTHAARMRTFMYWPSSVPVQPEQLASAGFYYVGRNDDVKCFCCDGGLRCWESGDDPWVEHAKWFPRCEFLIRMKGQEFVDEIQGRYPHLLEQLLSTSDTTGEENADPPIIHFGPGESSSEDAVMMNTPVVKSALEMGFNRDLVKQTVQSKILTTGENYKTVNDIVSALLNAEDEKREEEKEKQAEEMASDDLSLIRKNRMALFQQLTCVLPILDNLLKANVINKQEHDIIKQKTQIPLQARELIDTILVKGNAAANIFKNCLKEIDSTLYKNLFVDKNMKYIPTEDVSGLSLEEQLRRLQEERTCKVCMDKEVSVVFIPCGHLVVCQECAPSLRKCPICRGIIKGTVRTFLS
UniProt Q13489: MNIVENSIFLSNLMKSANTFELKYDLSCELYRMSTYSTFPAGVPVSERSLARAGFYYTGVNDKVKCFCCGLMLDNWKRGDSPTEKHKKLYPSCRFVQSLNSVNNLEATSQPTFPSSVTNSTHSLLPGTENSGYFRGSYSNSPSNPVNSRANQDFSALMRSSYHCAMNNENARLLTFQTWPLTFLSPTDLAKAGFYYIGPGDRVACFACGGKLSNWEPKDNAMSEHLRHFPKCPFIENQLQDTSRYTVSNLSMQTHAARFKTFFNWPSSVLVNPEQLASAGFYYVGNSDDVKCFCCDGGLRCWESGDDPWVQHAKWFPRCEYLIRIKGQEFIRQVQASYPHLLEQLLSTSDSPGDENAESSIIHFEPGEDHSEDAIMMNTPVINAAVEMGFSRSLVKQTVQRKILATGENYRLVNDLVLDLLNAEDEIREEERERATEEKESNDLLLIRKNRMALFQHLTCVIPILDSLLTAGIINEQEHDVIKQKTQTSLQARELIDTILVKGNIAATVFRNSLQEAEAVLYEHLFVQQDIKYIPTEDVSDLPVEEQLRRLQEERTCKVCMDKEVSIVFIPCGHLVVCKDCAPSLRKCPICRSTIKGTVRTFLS

Experiments:
TRAF1 [1] = biological target: T1, TRAF1 (UniProt Q13077); assay: yeast two-hybrid, deletion mutant
T1 sequence (looked up): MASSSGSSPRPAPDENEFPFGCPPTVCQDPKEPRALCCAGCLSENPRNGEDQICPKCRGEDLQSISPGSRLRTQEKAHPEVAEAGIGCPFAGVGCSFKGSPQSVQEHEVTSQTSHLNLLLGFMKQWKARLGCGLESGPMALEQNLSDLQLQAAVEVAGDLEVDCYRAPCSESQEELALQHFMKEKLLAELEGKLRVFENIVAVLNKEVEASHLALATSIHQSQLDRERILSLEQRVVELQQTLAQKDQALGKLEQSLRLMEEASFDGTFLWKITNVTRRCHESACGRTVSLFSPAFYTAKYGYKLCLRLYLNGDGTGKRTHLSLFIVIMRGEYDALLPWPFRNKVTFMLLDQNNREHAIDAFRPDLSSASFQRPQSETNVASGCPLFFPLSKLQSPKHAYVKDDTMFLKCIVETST

TRAF1 [2] = biological target: T1, TRAF1; assay: yeast two-hybrid

Substance | binding (TRAF1 [1]) | binding (TRAF1 [2])
N-terminal half of c-IAP1 containing the three BIR motifs (amino acids 1-336 of c-IAP1) (from UniProt Q13490 1-336) | binds | –
N-terminal half of c-IAP2 containing the three BIR motifs (amino acids 1-396 of c-IAP2) (from UniProt Q13489 1-396) | binds | –
human cellular inhibitor of apoptosis protein 2 (c-IAP2) (from UniProt Q13489 1-604) | – | binds
